In PubChem BioAssay AID1671190 (National Center for Advancing Translational Sciences (NCATS), 2021):
Out of some 580,000 compounds screened, about 6,100 (1.1%) were called active. This list was built around the results that the source calls inconclusive (neither active nor inactive); the mix of calls is not that of the screen. The call rests on the fitted dose curve; in most records, active means well fitted inhibition curve with a large enough effect; inconclusive means small, poorly fitted or top-dose-only effect, or another doubt; inactive means no such curve, though single readings can be large or run the other way. Where the call is inconclusive, the potency comes from a doubtful curve fit.

Amino acid sequences for entries named in this document (tags omitted). A change or cut given only in a name is not applied to a line headed by its entry.
UniProt P18054: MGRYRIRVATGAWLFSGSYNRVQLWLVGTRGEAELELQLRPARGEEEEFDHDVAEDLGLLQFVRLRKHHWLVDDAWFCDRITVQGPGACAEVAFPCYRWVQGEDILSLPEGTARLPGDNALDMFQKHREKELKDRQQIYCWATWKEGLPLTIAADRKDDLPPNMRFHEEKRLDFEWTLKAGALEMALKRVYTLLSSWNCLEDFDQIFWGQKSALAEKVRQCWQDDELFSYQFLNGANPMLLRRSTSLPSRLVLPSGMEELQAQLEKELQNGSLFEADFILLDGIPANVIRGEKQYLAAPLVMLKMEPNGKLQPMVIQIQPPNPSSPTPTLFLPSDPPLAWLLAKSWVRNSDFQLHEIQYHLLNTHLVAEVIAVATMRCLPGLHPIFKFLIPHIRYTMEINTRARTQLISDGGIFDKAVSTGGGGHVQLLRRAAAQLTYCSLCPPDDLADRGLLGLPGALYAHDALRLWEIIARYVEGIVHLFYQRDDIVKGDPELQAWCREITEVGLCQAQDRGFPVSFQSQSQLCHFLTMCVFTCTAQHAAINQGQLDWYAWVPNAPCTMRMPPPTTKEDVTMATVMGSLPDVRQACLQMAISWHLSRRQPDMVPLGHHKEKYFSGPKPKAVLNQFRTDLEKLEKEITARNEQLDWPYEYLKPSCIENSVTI

What follows are molecules tested against Polyunsaturated fatty acid lipoxygenase ALOX12 (Homo sapiens) (UniProt P18054) (assay: Primary qHTS assay for inhibitors of human arachidonate 12S-lipoxygenase (ALOX12): Round 2). Settings: purified 12hLO, xylenol orange hydroperoxide absorbance; activity change, negative = inhibition: at 108 µM (top of the series) unless noted.
Outline: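 Purified human 12hLO at 150 nM in 25 mM Hepes, 0.01% Triton X-100, pH 7.0, preincubated 15 min at room temperature with compound. Reaction started with 40 uM arachidonic acid, 30 min at room temperature. Hydroperoxide measured by Fe-xylenol orange, 573/405 nm absorbance ratio.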
On the % scale 0 is the no-effect control and ±100 the full control effect; potency means the concentration at half of the fitted maximal effect.

| Structure (SMILES) | Potency | activity change, negative = inhibition |
| --- | --- | --- |
| COc1ccc(N2C(=O)CC(N3CCC(c4nc5ccccc5[nH]4)CC3)C2=O)cc1 (stereo unspecified) | inactive | – |
| COc1ccc(OC)c(NC(=O)COC(=O)CCc2nc3ccccc3c(=O)[nH]2)c1 | inconclusive: 50.1 µM [inhibitor, partial curve, poor fit] | – |
| CN1CCN(c2ccc(Nc3c4ccccc4nc4ccccc34)cc2)CC1 | inconclusive: 44.7 µM [inhibitor, partial curve, poor fit] | – |
| O=C(O)Cn1nc(C2CCOCC2)nc1CC1NC(=O)NC1=O (stereo unspecified) | inconclusive: 10 µM [inhibitor, full curve] | – |
| O=C(Cc1ccc(Cl)cc1)Nc1nnc2n1CCS2 | inactive | – |
| COc1cccc(-c2ccc3c(N)c(C(=O)c4ccc(Br)cc4)sc3n2)c1 | inconclusive: 100 µM [inhibitor, single point] | – |
| COc1cc(OC)cc(C(=O)NC2CCN(c3cc(C(F)(F)F)ncn3)CC2)c1 | inactive | – |
| O=C1NC[C@H](CCCCN2C[C@H](Cc3ccccc3)N(CCC3CCCCC3)C(=O)C2=O)N(Cc2ccccc2)C1=O | inconclusive: 56.2 µM [inhibitor, partial curve, poor fit] | – |
| O=C(O)c1ccc(-c2ccc(C(=O)O)nc2)cc1 | inconclusive: 5.19 µM [inhibitor, single point] | – |
| CN(Cc1ccccc1)Cc1c[nH]c2ccccc12 | inactive | – |
| CC(C)N(Cc1nc2ccccc2c(=O)[nH]1)C(=O)c1sc2cc(F)ccc2c1Cl | inconclusive: 28.2 µM [inhibitor, partial curve, poor fit] | – |
| C=CCOc1cccc(C(=O)N2CC[C@@](O)(C3CCOCC3)[C@H](C)C2)c1 | inactive | – |
| Cc1ccc(NC(=O)CSc2nc3[nH]c(=O)cc(O)c3s2)c(Br)c1 | inconclusive: 50.1 µM [inhibitor, partial curve, poor fit] | – |
| CC(C)n1nc(C(=O)NCc2cccc(Cl)c2)c2ccccc2c1=O | inconclusive: 100 µM [inhibitor, single point] | – |
| COc1cccc(CC(=O)N[C@@H]2C[C@H](COc3cccc(C)n3)[C@@H](O)[C@H]2O)c1 | inconclusive: 25.1 µM [inhibitor, full curve] | – |
| COc1ccccc1C(=O)Nc1ncc2c(n1)CC(c1ccco1)CC2=O (stereo unspecified) | – | inconclusive: -33.4% [inhibitor] |
| Cc1ccc(C2=Nc3ccc(Cl)cc3OC2)cc1 | active: 21.7 µM | – |
| Cc1cc(C)c(NS(=O)(=O)c2ccc(-c3cnc(C4CC4)o3)cc2)c(C)c1 | inactive | – |
| O=C(N/N=C/c1cccc(Br)c1)C1CC1 | inactive | – |
| CC(C)(CNS(=O)(=O)c1ccc(F)cc1)CNS(=O)(=O)c1ccc(F)cc1 | inconclusive: 112 µM [inhibitor, single point] | – |
| COC(=O)N1CCc2c(sc(NC(=O)C3COc4ccccc4O3)c2C(N)=O)C1 (stereo unspecified) | active: 17.8 µM | – |
| CCn1c(CN2CCN(Cc3ccc(C)cc3)C(CCO)C2)nc2ccccc21 (stereo unspecified) | inconclusive: 50.1 µM [inhibitor, partial curve, poor fit] | – |

Complete entries as entered above. Values in the order: Potency | activity change, negative = inhibition
Cc1cc(C)c(NS(=O)(=O)c2ccc(-c3cnc(C4CC4)o3)cc2)c(C)c1 is listed with inactive | –
COc1cc(OC)cc(C(=O)NC2CCN(c3cc(C(F)(F)F)ncn3)CC2)c1 is listed with inactive | –
CN1CCN(c2ccc(Nc3c4ccccc4nc4ccccc34)cc2)CC1 is listed with inconclusive: 44.7 µM [inhibitor, partial curve, poor fit] | –
COc1ccc(N2C(=O)CC(N3CCC(c4nc5ccccc5[nH]4)CC3)C2=O)cc1 (stereo unspecified) is listed with inactive | –

(continued)

| Structure (SMILES) | Potency | activity change, negative = inhibition |
| --- | --- | --- |
| COc1cc(C(=O)N2CCN(S(=O)(=O)c3ccc(C)cc3)CC2)ccc1OCC(=O)N1CCOCC1 | inconclusive: 126 µM [inhibitor, single point] | – |
| C/C(CC1CC(C)(C)OC1=O)=N\NC(N)=S (stereo unspecified) | inconclusive: 0.316 µM [inhibitor, full curve, poor fit] | – |
| C[C@H]1C[C@H]2[C@@H]3CCC4=CC(=O)C=C[C@]4(C)[C@@]3(Cl)[C@@H](O)C[C@]2(C)[C@@]1(O)C(=O)CO | inactive | – |
| CC(O)[C@H]1CNC(=O)C(=O)N1CCC12CC3CC(CC(C3)C1)C2 (stereo partly specified) | inconclusive: 89.1 µM [inhibitor, single point] | – |
| Cc1ccc(NC(=O)c2cc(-c3ccncc3)nc3ccccc23)c(C)c1 | inconclusive: 50.1 µM [inhibitor, single point] | – |
| O=C(OCC(=O)N1CCN(C(=O)c2ccco2)CC1)c1cn(-c2ccccc2)nc1-c1ccccc1 | inactive | – |
| OC[C@@H]1CN(Cc2ccc(-c3ccccc3)cc2)C[C@H](n2cnc3c(Nc4ccccc4)ncnc32)O1 | inconclusive: 112 µM [inhibitor, single point] | – |
| CC1=C[C@@H](CNC(=O)CC(C)(C)C)[C@H](C(C)C)C[C@H]1CC(=O)NCc1cccnc1 | inconclusive: 35.5 µM [inhibitor, full curve] | – |
| Oc1ccc(C2SCCS2)cc1 | inactive | – |
| COc1ccc(SC[C@H](C)CN2CC[C@H](C)CCC2=O)cc1 | inconclusive: 89.1 µM [inhibitor, single point] | – |
| CCC(CC)C(=O)N(C)c1c(C)nc2c(OCc3ccc(Cl)cc3)cccn12 | inconclusive: 39.8 µM [inhibitor, partial curve, poor fit] | – |
| CC(C)C(=O)NC(Nc1ccc(Br)cc1)C(Cl)(Cl)Cl (stereo unspecified) | inconclusive: 31.6 µM [inhibitor, partial curve, poor fit] | – |
| CN(C(=O)CSc1nc(N)c2c3c(sc2n1)CSC(C)(C)C3)c1ccccc1 | inconclusive: 44.7 µM [inhibitor, partial curve, poor fit] | – |
| Cc1ccc(C(=O)CNc2ccccc2C)cc1 | inconclusive: 44.7 µM [inhibitor, partial curve, poor fit] | – |
| Cc1nn(-c2ccccc2)c(C)c1CN(C)C(=O)CNC(=O)c1ccc(C(C)(C)C)cc1 | inconclusive: 0.447 µM [inhibitor, full curve, poor fit] | – |
| O=C(CSc1nnc(Cn2c(=O)sc3ccccc32)n1-c1ccccc1)N1CCCC1 | inactive | – |
| O=C(CCCN1C(=O)/C(=C/c2ccccc2Cl)SC1=S)NCCCN1CCOCC1 | inactive | – |
| CCc1nnc(NC(=O)C2CC(=O)N(CCc3ccc(F)cc3)C2)s1 (stereo unspecified) | inconclusive: 44.7 µM [inhibitor, partial curve, poor fit] | – |
| CSc1ccc(NC(=O)c2ccc3c(c2)N(C)C2CCCN2C3=O)cc1 (stereo unspecified) | inactive | – |
| COc1ccc2nc(NC(=O)c3ccoc3C)sc2c1 | inactive | – |
| O=C(c1ccc2cc[nH]c2c1)N1CCc2c(nc3cc(-c4ccccc4)[nH]n3c2=O)C1 | inconclusive: 35.5 µM [inhibitor, partial curve] | – |
| CCNC(=O)NC[C@@H]1C=C(C)[C@H](CC(=O)NCc2ccc(F)cc2)C[C@H]1C(C)C | inconclusive: 50.1 µM [inhibitor, full curve, poor fit] | – |

| Structure (SMILES) | Potency | activity change, negative = inhibition |
| --- | --- | --- |
| COc1cccc(-c2ccc3ncnc(Nc4ccccc4)c3c2)c1 | inconclusive: 0.891 µM [inhibitor, full curve, poor fit] | – |
| C=CC[n+]1c(C)csc1Nc1ccc(C(=O)O)cc1 | inactive | – |
| Cc1cccc(C)c1NC(=S)Nc1ccc(Cl)c(Cl)c1 | inconclusive: 44.7 µM [inhibitor, partial curve, poor fit] | – |
| COc1ccc(NC(=O)C2CCCN(Cc3nc(-c4ccc(OC)c(OC)c4)no3)C2)cc1OC (stereo unspecified) | inconclusive: 15.8 µM [inhibitor, full curve, poor fit] | – |
| O=C1C(=O)N(CCCN2CCOCC2)C(c2ccc(F)cc2)/C1=C(/O)c1ccccc1 (stereo unspecified) | inconclusive: 17.8 µM [inhibitor, partial curve, poor fit] | – |
| CCCCOc1nnc(-c2ccc(OCC)cc2)c2ccccc12 | inactive | – |
| Cc1nc(-c2ccccc2)sc1C1(C)CC(c2ccccc2F)=NO1 (stereo unspecified) | inconclusive: 39.8 µM [inhibitor, partial curve] | – |
| COc1ccc(C(=O)C=CNNC(=O)c2ccc(Cl)cc2)cc1 | inconclusive: 79.4 µM [inhibitor, partial curve, poor fit] | – |
| COc1cc(/C=C/c2nc3cc(C)c(C)cc3s2)cc(OC)c1 | inconclusive: 35.5 µM [inhibitor, partial curve, poor fit] | – |
| CCOC(=O)C1=C(COC(=O)CCOc2ccccc2C)NC(=O)NC1C (stereo unspecified) | inconclusive: 100 µM [inhibitor, single point] | – |
| Clc1ccccc1-c1cncnc1NCCN1CCOCC1 | inconclusive: 56.2 µM [inhibitor, partial curve, poor fit] | – |
| O=C(c1cnc(Cc2c[nH]c3ccccc23)c(I)c1)N1CCCCC1 | inconclusive: 39.8 µM [inhibitor, partial curve, poor fit] | – |
| O=C(CCC(=O)OCC(=O)c1cccc([N+](=O)[O-])c1)Nc1cccc(Cl)c1Cl | inactive | – |
| O=C1SC(Nc2ccc(Cl)cc2)C(=O)N1Cc1ccccc1 (stereo unspecified) | inconclusive: 79.4 µM [inhibitor, partial curve, poor fit] | – |
| Cc1cc(S(=O)(=O)N2CCOCC2)ccc1OCC(=O)Nc1ccc(F)cc1F | inactive | – |
| CCC(C)NC(=O)c1cc2sc3ccccc3c2s1 (stereo unspecified) | inconclusive: 28.2 µM [inhibitor, partial curve, poor fit] | – |
| CC(C)c1ccc(-c2[nH]c3ccccc3c2C=O)cc1 | inconclusive: 12.6 µM [inhibitor, full curve, poor fit] | – |
| Cc1cc(C(=O)NN=C2CCCCCCC2)c2ccccc2n1 | inconclusive: 50.1 µM [inhibitor, partial curve, poor fit] | – |
| Cc1c(Cl)cccc1Nc1nc(N)nc(CSc2nc3ccccc3s2)n1 | inactive | – |
| CN(C)CCN1C(=O)c2oc3ccccc3c(=O)c2C1c1cccc(Br)c1 (stereo unspecified) | inconclusive: 89.1 µM [inhibitor, partial curve, poor fit] | – |
| COC(=O)/C=C1\S/C(=N\N=C\CC(=O)OC)NC1=O | inconclusive: 70.8 µM [inhibitor, partial curve, poor fit] | – |
| CCOC(=O)c1c(C)[nH]c(C)c1S(=O)(=O)N1CCC(C(=O)N2CCN(c3cc(C)ccc3C)CC2)CC1 | inactive | – |
